According to article PMC11324528:
These are yes or no findings as the source states them, for the method shown. In cells and extracts the contact can be indirect. Some results given as binding are weak or reduced against the parent protein; the word gives no strength.

Biological target: VLDLRLBD–Fc (human) (UniProt P98155)
Experiment: pull-down

Substance: receptor-associated protein (RAP) (from UniProt P30533 35-353)
- binding: binds
